Source: paper doi:10.1101/423194
No constants are given. Whether binding was seen depends on the method and setting. Some results given as binding are weak or reduced against the parent protein; the word gives no strength.

Sequences of proteins named here, by UniProt entry; tags and fusion partners are left off.
UniProt P16220: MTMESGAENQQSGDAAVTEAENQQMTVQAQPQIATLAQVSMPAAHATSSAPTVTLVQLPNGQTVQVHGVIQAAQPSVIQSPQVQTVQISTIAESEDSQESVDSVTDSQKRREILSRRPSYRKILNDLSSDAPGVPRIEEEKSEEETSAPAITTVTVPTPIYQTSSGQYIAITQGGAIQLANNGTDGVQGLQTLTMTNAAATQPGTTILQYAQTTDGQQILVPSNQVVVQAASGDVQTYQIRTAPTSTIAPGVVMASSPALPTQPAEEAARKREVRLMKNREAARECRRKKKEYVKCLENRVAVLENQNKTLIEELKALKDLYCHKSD
UniProt P03165: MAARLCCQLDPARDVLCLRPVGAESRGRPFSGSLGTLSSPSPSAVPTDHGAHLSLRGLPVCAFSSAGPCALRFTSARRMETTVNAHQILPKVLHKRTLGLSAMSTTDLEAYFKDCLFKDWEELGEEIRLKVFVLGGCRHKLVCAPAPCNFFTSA

Biological target: HA-CREB (UniProt P16220)
Assay: re-ChIP

In the case of “GFP-HBx (hepatitis B virus X protein) (from UniProt P03165 1-154)”, the binding is reported as “binds”.
